From doi:10.1101/2025.02.19.638559, “The architecture, assembly, and evolution of a complex flagellar motor” (bioRxiv, 2025)
Results are given in words; binding and its absence hold for the method and conditions named. Some results given as binding are weak or reduced against the parent protein; the word gives no strength.

T1: PflB_(113–820) (C. jejuni 81-176)
T1 sequence: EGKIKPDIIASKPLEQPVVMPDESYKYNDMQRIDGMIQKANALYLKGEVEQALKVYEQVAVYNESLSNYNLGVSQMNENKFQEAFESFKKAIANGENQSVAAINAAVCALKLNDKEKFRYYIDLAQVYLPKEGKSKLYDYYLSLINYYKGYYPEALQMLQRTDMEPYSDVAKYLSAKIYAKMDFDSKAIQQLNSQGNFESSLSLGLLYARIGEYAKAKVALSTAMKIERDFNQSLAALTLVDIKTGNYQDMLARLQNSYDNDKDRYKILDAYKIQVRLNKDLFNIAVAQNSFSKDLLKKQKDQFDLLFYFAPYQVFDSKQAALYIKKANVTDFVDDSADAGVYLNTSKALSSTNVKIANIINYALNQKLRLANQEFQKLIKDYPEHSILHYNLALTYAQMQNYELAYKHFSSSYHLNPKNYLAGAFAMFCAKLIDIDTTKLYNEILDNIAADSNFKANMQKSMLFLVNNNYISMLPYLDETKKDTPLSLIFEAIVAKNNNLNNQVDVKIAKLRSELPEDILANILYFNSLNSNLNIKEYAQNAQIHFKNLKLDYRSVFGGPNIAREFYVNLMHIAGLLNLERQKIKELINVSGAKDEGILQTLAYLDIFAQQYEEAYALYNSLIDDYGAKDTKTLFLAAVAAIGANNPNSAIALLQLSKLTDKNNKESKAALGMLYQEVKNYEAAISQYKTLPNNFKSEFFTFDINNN

B1: PflA_(16–788) of the purified PflA_(16–788) and PflB_(113–820) complex (domain or fragment)
chain: AFELVLNTGRENNQAFAVLHASNDLEFTCQKFITEAKVHFECDIVGMVDNKLKDQSFSAFDLKFIQEAQKIKMIILPKIQARMFDTSQNIYIDKELSSSSSHKSKAFTFIFTPELAPIKDYDGLDFNINFPHESLPYVGALDLNSDPVVIPQSADINTYLRIKKEYDKANYNQVVIDAQNAINRYRGSIFTSEFILYKLRAQNKLYTQDPSMRDQQILEKMIDDAKNWTRTFTSDKNFSEVLHIMLRTYIALAQRADVEYTMSILDNEQPNNYFTQLSKLDYADYIYNLNEKEKAVNIYENTYFNTKNLDLAARAAMSLAKNLLSNEQVNKAIEYINTILKANPEYFGKDIPRSLELAKLFNQKGQFDISASIYEDAFAKMSKLDPSYEETLKDLALVLSHANRSSDAKKYLDLYMDDYLDGKYLDEIKKASDEVFFALGDNNASFLHQRYTDLMKQYANKDENIANKALDEDVALYYKEGNFSAILAYKDLIESKKIPNATQFLEKAAINDLKNAIKADNCINAANIFMRFSAYDIGQKIENKKQMLACLIRTSNVEQALDYIDKNYNEDSIFYGLQKASILFDNKQYPQVIKISKDIANSRILKSDDENFKAYYLQFLSLLRLNDYNQAIKILQILESFPMNFSMVEAYDALLSYANDHNMQTTILTYAPKAIDYQNFKGINLFSPNLEFIYLDALTKINKNEESLAVLTDLLKLKLSDEDRARALYIQALTYERMQNIQAEKESLKQCLEIKSASNWQNLCKSKNQILNQ
notes: PflA of C. jejuni 81-176, residues 16-788; only 16-163 (β-sandwich domain and flexible loop) are resolved in the cryo-EM structure; PflA16-788 was cloned both in pET22b (C-terminal 6×His) and in pET26b (C-terminal Strep-tag); also called PflA_(16–163) (the part resolved in the map)

Columns and labels:
[1] = target: PflB (bacterial two-hybrid fusion of Fig. 2j) (C. jejuni 81-176); experiment: two-hybrid; bacterial two hybrid (BTH): T25 and T18 fusions co-transformed into E. coli BTH101; spotted on LB plates with X-Gal and 0.5 mM IPTG, 30 °C, 24 h
[2] = target: T1, PflB_(113–820) (C. jejuni 81-176); experiment: cryo-EM structure; single-particle cryo-EM of the purified PflA16-788 and PflB113-820 complex at 0.4 mg/ml; 3.23 Å; both purified

Molecule	binding [1]	binding [2]
PflA (bacterial two-hybrid fusion of Fig. 2j) (from UniProt Q46092 1-788)	binds	
B1		binds
